The source of these data is US20230113836A1 (ENLITISA (SHANGHAI) PHARMACEUTICAL CO., LTD., priority 2019, published 2023).

The series in a line: general procedure: Fmoc solid-phase peptide synthesis; Fmoc-Lys(Boc)-Wang resin; Fmoc-Lys(fmoc)-Wang resin (GL Biochem); TBTU/DIPEA. The following applies: whole synthesis, scale of the general procedure 9.15 g resin, 9.9 g resin, acetate (ammonium acetate wash, 0.1% HAc elution).
Where [1] appears, read: HPLC, UV at 220 nm (Shimadzu LCMS-8050 / LC-20, ZORBAX Eclipse SB-C18).

With “(Ala-Lys-Pro-Ser-Tyr-Hyp-Hyp-Thr-DOPA-Lys)2 (SEQ ID No: 11)”, the “final HPLC purity” value under setting [1] is on record as 98%. Also, the “crude HPLC purity” value (UV 220 nm) was determined as 60.345%. For the substance “(Ala-Lys-Pro-Ser-Tyr-Hyp-Hyp-Thr-DOPA-Lys)2-Lys”, under setting [1], the “crude HPLC purity” value came to 68.985%.
